Experimental data: patent US6663846B1, “Devices and methods for monitoring drug therapy compliance” (priority 1998, dated 2003)

Columns and labels:
[1] = Low frequency modulation sensing in 0.5% intralipid with Ru complex PVA film as long lifetime reference; format: physicochemical
[2] = Detection of fluorophore emission through chicken skin over intralipid or chicken muscle; conditions: chicken skin over intralipid; also over chicken muscle

Molecule | lowest concentration detected ([1]; 0.5% intralipid with Ru complex reference) [nm] | emission peak detected through chicken skin [2] [nm] | calculated fs (fractional intensity of short component) ([1]; 0.05 μM Rh800, global analysis) | observed modulation ([1]; 0.05 μM Rh800, near 5 MHz) | calculated fs (fractional intensity of short component) ([1]; 0.25 μM Rh800, global analysis) | observed modulation ([1]; 0.25 μM Rh800, near 5 MHz) | calculated fs (fractional intensity of short component) ([1]; 1.00 μM Rh800, global analysis) | observed modulation ([1]; 1.00 μM Rh800, near 5 MHz) | lowest concentration detected ([1]; 0.5% intralipid) [nM]
CC1(C)C(/C=C/C=C/C=C/C=C2\N(CCCCS(=O)(=O)O)c3ccc4ccccc4c3C2(C)C)=[N+](CCCCS(=O)(=O)[O-])c2ccc3ccccc3c21 [IcG, indocyanine green] | 250 | 820 | – | – | – | – | – | – | –
Rhodamine 800 [Rh800] | – | 710 | 0.184 | 0.185 | 0.534 | 0.525 | 0.803 | 0.812 | 50
